Test results taken from PMC10811509, “APP‐C31: An Intracellular Promoter of Both Metal‐Free and Metal‐Bound Amyloid‐β40 Aggregation and Toxicity in Alzheimer's Disease” (Advanced Science, 2023).
These are yes or no findings as the source states them, for the method shown. Some binding calls cover weakened binding; strength is not graded here.

How the values were obtained:
amyloid‐β40 (Aβ40) = experiment: native MS; ESI–MS; APP-C31 100 µM, Aβ40 100 µM, ZnCl2 100 µM, 20 mM ammonium acetate, pH 7.3, 37 °C, 2 h; diluted tenfold; both purified
[1] = molecular target: uniformly ^15N‐labeled Aβ40; experiment: NMR titration; 2D 1H–15N HSQC (900 MHz); 15N-labeled Aβ40 40 µM treated with APP-C31 200 µM; 20 mM HEPES, pH 7.4, 10% D2O; 5 °C; no metal; both purified

binding (amyloid‐β40 (Aβ40)): binds weakly
binding [1]: binds weakly
Binder: AAVTPEERHLSKMQQNGYENPTYKFFEQMQN [APP‐C31 (APP_(665–695))]
